From US20220056075A1, “METHOD FOR TREATING OPIOID USE DISORDER” (THE ADMINISTRATORS OF THE TULANE EDUCATIONAL FUND, priority 2019, published 2022)
“Also recorded” adds a separate entry of the source. Part of at least one peptide drawing is inferred or uncertain, most often the ends. Some compounds share one wording; it may come from a single statement.

The chains behind the UniProt entries cited, without tags or fusion partners.
UniProt P35372, whole entry: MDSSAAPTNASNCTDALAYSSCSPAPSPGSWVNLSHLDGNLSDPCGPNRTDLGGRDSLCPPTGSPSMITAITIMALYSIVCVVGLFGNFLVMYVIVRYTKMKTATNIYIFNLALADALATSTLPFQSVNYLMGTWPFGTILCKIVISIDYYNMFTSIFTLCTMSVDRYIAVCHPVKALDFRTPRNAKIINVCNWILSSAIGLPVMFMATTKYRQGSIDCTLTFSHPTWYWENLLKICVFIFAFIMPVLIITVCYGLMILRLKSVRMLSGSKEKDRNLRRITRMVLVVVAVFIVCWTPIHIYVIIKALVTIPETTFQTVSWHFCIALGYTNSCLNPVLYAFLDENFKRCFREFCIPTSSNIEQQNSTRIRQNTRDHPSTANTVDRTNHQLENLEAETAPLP

Assays:
[1] = tested on: rats trained to discriminate morphine from vehicle; test: Drug discrimination (DD), morphine-trained rats; settings: for Maximum % drug-appropriate responding / ED50 (morphine-appropriate responding) / substitution for morphine: i.v.; for Maximum % drug-appropriate responding: male rats; for ED50 (morphine-appropriate responding): value (SEM); for substitution for morphine: bolus and cumulative injection procedures
Description: Drug Discrimination (DD): Rats were food deprived to approximately 85% of the weight of free feeding cohorts to establish operant responding for 45 mg food pellets (Bioserve, Frenchtown, N.J.) in standard operant chambers (MED Associates, St. Albans, Vt.). Rats were fed 10-20 g of standard food after daily DD sessions, and ˜3× the daily amount on weekends to maintain appropriate weight. DD consisted of 3 phases (Krivsky et al., 2006). In phase 1, rats were trained to lever press for food at a fixed ratio (FR) level 1 (i.e., 1 lever press=1 food pellet) using 2 levers with stimulus lights located above each lever and a food hopper between the levers during 120 min sessions. Responding on either lever extinguished the light and delivered a food pellet. […] Once >20 pellets were earned at FR9, sessions were shortened to 20 min and response requirements were set at FR10 and the left or right lever reinforced responding on alternate days. Once >20 pellets were earned on each lever at FR10, rats started phase 2 of DD training.
Only responses on the correct lever were reinforced and responses on the incorrect lever reset the response requirement on the correct lever. Criteria to move to phase 3 were as follows: >20 pellets per session, >90% injection appropriate lever responding, and <9 responses on the incorrect lever before the first food pellet reward.
Two paradigms were utilized to generate substitution curves: cumulative within-session and bolus between-session injections.
During substitution tests, both levers actively delivered food at an FR10 schedule. […] Doses were increased in ¼ log increments, with injections every 20 min followed 15 minutes later by DD sessions lasting 5 min each. […] The advantage of this procedure was that an entire dose-response was generated in one session.
Statistics: PRISM software (GraphPad, San Diego, Calif.) was used for one-way analysis of variance (ANOVA) with Newman-Keuls post-hoc comparisons to compare CPP groups, locomotor effects, hot plate, and DD response rates. Locomotor data recorded during the conditioning sessions were analyzed by 2-way ANOVA (session x drug) and data from the first session were subtracted from the final session to assess locomotor enhancement. Experimenters were blinded to treatment groups.

male and female mice = format: in vivo, mouse; settings: s.c., compared to vehicle
DBA mice = test: Hot plate antinociception test; format: in vivo, mouse
rats [2] = test: Tail flick antinociception in rats; format: in vivo, rat
Male Sprague-Dawley rats = test: Alleviation of spontaneous morphine withdrawal symptoms; format: in vivo, rat; settings: challenge 1.8 and 3.2 mg/Kg, 24 hr after 5 days escalating morphine
male rats = test: Forced abstinence and relapse test (oxycodone seeking); format: in vivo, rat; settings: 8th day of forced abstinence; i.v. pretreatment ZH853 1.8 or 3.2 mg/kg, oxycodone 0.32 mg/kg
Description: Self-administration (SA): Self-administration tests were conducted in standard operant chambers (MED Associates, St. Albans, Vt.). Infusions were delivered through TYGON tubing threaded through metal spring leashes and attached to exterior infusion pumps. 3-hour sessions were conducted Monday-Friday during the dark cycle. At the start of each session, the house light was illuminated, and levers extended. […] For the first 5 sessions, rats were trained to lever press for oxycodone (0.1 mg/kg/infusion) on a FR1 reinforcement schedule. For the following 10 sessions, the dose of oxycodone was decreased to 0.05 mg/kg/infusion to increase lever responding.
Forced abstinence and relapse test: Following acquisition of oxycodone self-administration, rats underwent 7 days of forced abstinence from oxycodone and exposure to the testing environment in their home cages. Animals were then split into treatment groups counterbalanced for total oxycodone intake, average number of infusions obtained in the last 3 sessions, and average number of active lever pressings over the last 3 sessions. On the 8th day of forced abstinence, rats were given an intravenous injection of 1.8 mg/kg ZH853, 3.2 mg/kg ZH853, or vehicle. The relapse test began 30 minutes later.

mu receptor [3] = target: T1, mu receptor (Homo sapiens, UniProt P35372); test: G-protein activation (preliminary studies); format: biochemical
mu receptor [4] = target: T1, mu receptor; test: β-arrestin recruitment (preliminary studies); format: biochemical
rats [5] = settings: 3 mg/Kg/infusion dose; cited from earlier work
MOR = MOR (Homo sapiens, UniProt P35372); settings: receptor binding and in vivo studies; cited from earlier work
[6] = bolus injections made between sessions
[7] = cumulative injections within a single session
[8] = rough correspondence with SA infusion dose

## NC(=O)[C@@H]1CCCCNC(=O)CC[C@@H](NC(=O)[C@@H](N)Cc2ccc(O)cc2)C(=O)N[C@@H](Cc2ccccc2)C(=O)N[C@@H](Cc2ccccc2)C(=O)N1 [ZH831, Tyr-c[D-Glu-Phe-Phe-Lys]-NH2]
[1]; [6]
  Maximum % drug-appropriate responding: 98.0%
  ED50 (morphine-appropriate responding): 1.631 (0.205) mg/Kg
[1]; [7]
  Maximum % drug-appropriate responding: 100%
  ED50 (morphine-appropriate responding): 0.830 (0.131) mg/Kg
[1]
  substitution for morphine: fully substituted for morphine

## NC(=O)[C@@H]1CCC(=O)NCCCC[C@@H](NC(=O)[C@@H](N)Cc2ccc(O)cc2)C(=O)N[C@@H](Cc2c[nH]c3ccccc23)C(=O)N[C@@H](Cc2ccccc2)C(=O)N1 [ZH850, Tyr-c[D-Lys-Trp-Phe-Glu]-NH2]
[1]; [6]
  Maximum % drug-appropriate responding: 97.2%
  ED50 (morphine-appropriate responding): 2.320 (0.328) mg/Kg
[1]; [7]
  Maximum % drug-appropriate responding: 98.2%
  ED50 (morphine-appropriate responding): 1.201 (0.170) mg/Kg
[1]
  substitution for morphine: fully substituted for morphine

## NC(=O)CNC(=O)[C@@H]1CCC(=O)NCCCC[C@@H](NC(=O)[C@@H](N)Cc2ccc(O)cc2)C(=O)N[C@@H](Cc2c[nH]c3ccccc23)C(=O)N[C@@H](Cc2ccccc2)C(=O)N1 [ZH853, Tyr-c[D-Lys-Trp-Phe-Glu]-Gly-NH2]
Male and female mice
  tail flick antinociception: provided equivalent antinociception of similar duration as was provided by morphine
DBA mice; 5.6 and 10 mg/Kg s.c., male DBA mice
  duration of significant increases in hot plate latencies: up to 2 hours
DBA mice; high dose (10 mg/Kg) of ZH853
  effect of 24 h βFNA pretreatment (40 mg/Kg, s.c.) on antinociception: reversed the antinociceptive effects
DBA mice; male DBA mice, s.c.
  dose giving maximal hot plate antinociception: 10 mg/kg
[1]; [6]
  Maximum % drug-appropriate responding: 94.9%
  ED50 (morphine-appropriate responding): 2.104 (0.283) mg/Kg
[1]; [7]
  Maximum % drug-appropriate responding: 89.0%
  ED50 (morphine-appropriate responding): 1.765 (2.333) mg/Kg
[1]
  substitution for morphine: fully substituted for morphine
[1]; [8]
  ED20 in the DD model: ~1 mg/Kg/infusion
  ED80 in the DD model: ~3 mg/Kg/infusion
Rats [2]; 5.6 mg/Kg
  antinociceptive duration: about 4.5 hours
Rats [2]; after i.v. injection, relative to morphine
  onset of action: only marginally slower than morphine
Rats [2]; correspondence with SA infusion dose
  antinociceptive ED20: 1 mg/Kg/infusion
Rats [2]; rats, based on tail flick studies
  antinociceptive ED50: about 2 mg/Kg
Rats [2]; relative to morphine
  duration of action: longer
Male Sprague-Dawley rats
  Global Withdrawal (GWD) Scores: significantly lower GWD scores than MS-Veh
  Wet Dog Shakes (WDS): significantly lower WDS than Veh challenge
Male rats
  oxycodone-seeking (SA behavior, active lever responding) in 1-hour relapse test: dose-dependently inhibited SA behavior; also recorded: decreased active lever responding compared to vehicle and oxycodone pretreatment
Mu receptor [3]
  G-protein activation efficacy: full agonist for G-protein activation
Mu receptor [4]
  β-arrestin recruitment: moderately recruits β-arrestin
Rats [5]
  antinociception in tail flick tests: 100 % MPE
MOR
  MOR selectivity: high MOR selectivity
